Assay results: the supplement of paper PMC8728848
The other results are listed elsewhere or left out.

Key:
Test in all cases: glycan array binding signal (z-score within array); higher = stronger binding
Conditions in all cases: glycan notation: IUPAC condensed, linker removed
[1] = target: Gal(a1-3)Gal(b1-4)GlcNAc(b1-2)Man
In short: (§1)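 The binding signal is a Z-score computed within each array and averaged over linkers. Arrays of the same protein sequence at different concentrations or buffers were also averaged together. Data originate from 3228 arrays in the Consortium for Functional Glycomics database, kept only where the protein sequence was available.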

[2] = target: Gal(a1-3)Gal(b1-4)GlcNAc(b1-2)Man(a1-3)[Gal(a1-3)Gal(b1-4)GlcNAc(b1-2)Man(a1-6)]Man(b1-4)GlcNAc(b1-4)GlcNAc
In short: as §1

[3] = target: Gal(a1-3)Gal(b1-4)GlcNAc(b1-3)GalNAc
In short: as §1

[4] = target: Gal(a1-3)Gal(b1-4)GlcNAc(b1-6)GalNAc
In short: as §1

[5] = target: Gal(a1-3)Gal(b1-4)[Fuc(a1-3)]GlcNAc
In short: as §1

[6] = target: Gal(a1-3)Gal(b1-4)[Fuc(a1-3)]GlcNAc(b1-2)Man(a1-3)[Gal(a1-3)Gal(b1-4)[Fuc(a1-3)]GlcNAc(b1-2)Man(a1-6)]Man(b1-4)GlcNAc(b1-4)GlcNAc
In short: as §1

Gal(a1-3)GalNAc = target: Gal(a1-3)GalNAc
In short: as §1

[7] = target: Gal(a1-3)[Gal(a1-4)]Gal(b1-4)GlcNAc
In short: as §1

[8] = target: Gal(a1-4)Gal(b1-3)GlcNAc(b1-2)Man(a1-3)[Gal(a1-4)Gal(b1-3)GlcNAc(b1-2)Man(a1-6)]Man(b1-4)GlcNAc(b1-4)GlcNAc
In short: as §1

Gal(a1-4)Gal(b1-4)Glc = target: Gal(a1-4)Gal(b1-4)Glc
In short: as §1

Gal(a1-4)Gal(b1-4)GlcNAc = target: Gal(a1-4)Gal(b1-4)GlcNAc
In short: as §1

[9] = target: Gal(a1-4)Gal(b1-4)GlcNAc(b1-2)Man(a1-3)[Gal(a1-4)Gal(b1-4)GlcNAc(b1-2)Man(a1-6)]Man(b1-4)GlcNAc(b1-4)GlcNAc
In short: as §1

[10] = target: Gal(a1-4)Gal(b1-4)GlcNAc(b1-3)Gal(b1-4)Glc
In short: as §1

Gal(a1-4)GlcNAc = target: Gal(a1-4)GlcNAc
In short: as §1

Gal(a1-6)Glc = target: Gal(a1-6)Glc
In short: as §1

Gal(b1-2)Gal = target: Gal(b1-2)Gal
In short: as §1

Gal(b1-3)Gal = target: Gal(b1-3)Gal
In short: as §1

Gal(b1-3)Gal(b1-4)GlcNAc = target: Gal(b1-3)Gal(b1-4)GlcNAc
In short: as §1

Gal(b1-3)GalNAc = target: Gal(b1-3)GalNAc
In short: as §1

[11] = target: Gal(b1-3)GalNAc(a1-3)[Fuc(a1-2)]Gal(b1-4)Glc
In short: as §1

[12] = target: Gal(b1-3)GalNAc(a1-3)[Fuc(a1-2)]Gal(b1-4)GlcNAc
In short: as §1

Gal(b1-3)GalNAc(b1-3)Gal = target: Gal(b1-3)GalNAc(b1-3)Gal
In short: as §1

[13] = target: Gal(b1-3)GalNAc(b1-3)Gal(a1-4)Gal(b1-4)Glc
In short: as §1

[14] = target: Gal(b1-3)GalNAc(b1-4)Gal(b1-4)Glc
In short: as §1

[15] = target: Gal(b1-3)GalNAc(b1-4)[Neu5Ac(a2-3)]Gal(b1-4)Glc
In short: as §1

Gal(b1-3)GlcNAc = target: Gal(b1-3)GlcNAc
In short: as §1

[16] = target: Gal(b1-3)GlcNAc(a1-3)Gal(b1-4)GlcNAc
In short: as §1

[17] = target: Gal(b1-3)GlcNAc(a1-6)Gal(b1-4)GlcNAc
In short: as §1

Gal(b1-3)GlcNAc(b1-2)Man = target: Gal(b1-3)GlcNAc(b1-2)Man
In short: as §1

[18] = target: Gal(b1-3)GlcNAc(b1-2)Man(a1-3)[Gal(b1-3)GlcNAc(b1-2)Man(a1-6)]Man(b1-4)GlcNAc(b1-4)GlcNAc
In short: as §1

[19] = target: Gal(b1-3)GlcNAc(b1-2)Man(a1-3)[Gal(b1-3)GlcNAc(b1-2)Man(a1-6)]Man(b1-4)GlcNAc(b1-4)[Fuc(a1-6)]GlcNAc
In short: as §1

[20] = target: Gal(b1-3)GlcNAc(b1-2)Man(a1-3)[GlcNAc(b1-4)][Gal(b1-3)GlcNAc(b1-2)Man(a1-6)]Man(b1-4)GlcNAc(b1-4)GlcNAc
In short: as §1

[21] = target: Gal(b1-3)GlcNAc(b1-2)[Gal(b1-3)GlcNAc(b1-6)]Man(a1-6)[Gal(b1-3)GlcNAc(b1-2)Man(a1-3)]Man(b1-4)GlcNAc(b1-4)GlcNAc
In short: as §1

[22] = target: Gal(b1-3)GlcNAc(b1-3)Gal(b1-3)GlcNAc
In short: as §1

[23] = target: Gal(b1-3)GlcNAc(b1-3)Gal(b1-4)Glc
In short: as §1

[24] = target: Gal(b1-3)GlcNAc(b1-3)Gal(b1-4)GlcNAc
In short: as §1

[25] = target: Gal(b1-3)GlcNAc(b1-3)Gal(b1-4)GlcNAc(b1-2)Man(a1-3)[Gal(b1-3)GlcNAc(b1-3)Gal(b1-4)GlcNAc(b1-2)Man(a1-6)]Man(b1-4)GlcNAc(b1-4)GlcNAc
In short: as §1

[26] = target: Gal(b1-3)GlcNAc(b1-3)Gal(b1-4)GlcNAc(b1-2)[Gal(b1-3)GlcNAc(b1-3)Gal(b1-4)GlcNAc(b1-6)]Man(a1-6)[Gal(b1-3)GlcNAc(b1-3)Gal(b1-4)GlcNAc(b1-2)Man(a1-3)]Man(b1-4)GlcNAc(b1-4)[Fuc(a1-6)]GlcNAc
In short: as §1

[27] = target: Gal(b1-3)GlcNAc(b1-3)Gal(b1-4)GlcNAc(b1-3)Gal(b1-4)GlcNAc(b1-2)[Gal(b1-3)GlcNAc(b1-3)Gal(b1-4)GlcNAc(b1-3)Gal(b1-4)GlcNAc(b1-6)]Man(a1-6)[Gal(b1-3)GlcNAc(b1-3)Gal(b1-4)GlcNAc(b1-3)Gal(b1-4)GlcNAc(b1-2)Man(a1-3)]Man(b1-4)GlcNAc(b1-4)[Fuc(a1-6)]GlcNAc
In short: as §1

[28] = target: Gal(b1-3)GlcNAc(b1-3)Gal(b1-4)GlcNAc(b1-6)[Gal(b1-3)GlcNAc(b1-3)]Gal(b1-4)Glc
In short: as §1

[29] = target: Gal(b1-3)GlcNAc(b1-3)Gal(b1-4)[Fuc(a1-3)]GlcNAc(b1-6)[Gal(b1-3)GlcNAc(b1-3)]Gal(b1-4)Glc
In short: as §1

[30] = target: Gal(b1-3)GlcNAc(b1-3)GalNAc
In short: as §1

[31] = target: Gal(b1-3)GlcNAc(b1-6)Gal(b1-4)GlcNAc
In short: as §1

[32] = target: Gal(b1-3)GlcNAc(b1-6)GalNAc
In short: as §1

[33] = target: Gal(b1-3)GlcNAc(b1-6)[Gal(b1-3)]GalNAc
In short: as §1

Gal(b1-3)GlcNAc6S = target: Gal(b1-3)GlcNAc6S
In short: as §1

[34] = target: Gal(b1-3)[Fuc(a1-4)]GlcNAc
In short: as §1

[35] = target: Gal(b1-3)[Fuc(a1-4)]GlcNAc(b1-2)Man
In short: as §1

[36] = target: Gal(b1-3)[Fuc(a1-4)]GlcNAc(b1-2)Man(a1-3)[Gal(b1-3)[Fuc(a1-4)]GlcNAc(b1-2)Man(a1-6)]Man(b1-4)GlcNAc(b1-4)[Fuc(a1-6)]GlcNAc
In short: as §1

[37] = target: Gal(b1-3)[Fuc(a1-4)]GlcNAc(b1-3)Gal(b1-3)[Fuc(a1-4)]GlcNAc
In short: as §1

[38] = target: Gal(b1-3)[Fuc(a1-4)]GlcNAc(b1-3)Gal(b1-4)GlcNAc
In short: as §1

[39] = target: Gal(b1-3)[Fuc(a1-4)]GlcNAc(b1-3)Gal(b1-4)[Fuc(a1-3)]GlcNAc
In short: as §1

[40] = target: Gal(b1-3)[Fuc(a1-4)]GlcNAc(b1-6)GalNAc
In short: as §1

[41] = target: Gal(b1-3)[GlcNAc(b1-6)]GalNAc
In short: as §1

[42] = target: Gal(b1-3)[Neu5Ac(a2-6)]GalNAc
In short: as §1

[43] = target: Gal(b1-3)[Neu5Ac(a2-6)]GlcNAc(b1-4)Gal(b1-4)Glc
In short: as §1

[44] = target: Gal(b1-3)[Neu5Ac(b2-6)]GalNAc
In short: as §1

Gal(b1-4)Gal = target: Gal(b1-4)Gal
In short: as §1

[45] = target: Gal(b1-4)GalNAc(a1-3)[Fuc(a1-2)]Gal(b1-4)GlcNAc
In short: as §1

[46] = target: Gal(b1-4)GalNAc(b1-3)[Fuc(a1-2)]Gal(b1-4)GlcNAc
In short: as §1

B1: CD4 (Rattus norvegicus), P05540 (protein)
chain: MCRGFSFRHLLPLLLLQLSKLLVVTQGSTSITAYKSEGESAEFSFPLNLGEESLQGELRWKAEKAPSSQSWITFSLKNQKVSVQKSTSNPKFQLSETLPLTLQIPQVSLQFAGSGNLTLTLDRGILYQEVNLVVMKVTQPDSNTLTCEVMGPTSPKMRLILKQENQEARVSRQEKVIQVQAPEAGVWQCLLSEGEEVKMDSKIQVLSKGLNSGGGSGGGTGGGDLAPQMLRELQETNAALQDVRELLRQQVKEITFLKNTVMECDACGLDRNLPPLAPLGPHPETLVKVKDAEDQLGARVGYIELDLNSGKILESFRPEERFPMMSTFKVLLCGAVLSRIDAGQEQLGRRIHYSQNDLVEYSPVTEKHLTDGMTVRELCSAAITMSDNTAANLLLTTIGGPKELTAFLHNMGDHVTRLDRWEPELNEAIPNDERDTTMPVAMATTLRKLLTGELLTLASRQQLIDWMEADKVAGPLLRSALPAGWFIADKSGAGERGSRGIIAALGPDGKPSRIVVIYTTGSQATMDERNRQIAEIGASLIKHW
[1]
  glycan array binding signal (z-score): 0.938
[2]
  glycan array binding signal (z-score): 0.652
[3]
  glycan array binding signal (z-score): -1.02
[4]
  glycan array binding signal (z-score): -1.75
[5]
  glycan array binding signal (z-score): -0.348
[6]
  glycan array binding signal (z-score): 1.12
Gal(a1-3)GalNAc
  glycan array binding signal (z-score): 0.161
[7]
  glycan array binding signal (z-score): 0.748
[8]
  glycan array binding signal (z-score): -0.131
Gal(a1-4)Gal(b1-4)Glc
  glycan array binding signal (z-score): 1.61
Gal(a1-4)Gal(b1-4)GlcNAc
  glycan array binding signal (z-score): 0.864
[9]
  glycan array binding signal (z-score): -0.117
[10]
  glycan array binding signal (z-score): 3.31
Gal(a1-4)GlcNAc
  glycan array binding signal (z-score): -2.17
Gal(a1-6)Glc
  glycan array binding signal (z-score): -0.376
Gal(b1-2)Gal
  glycan array binding signal (z-score): -0.658
Gal(b1-3)Gal
  glycan array binding signal (z-score): 0.504
Gal(b1-3)Gal(b1-4)GlcNAc
  glycan array binding signal (z-score): -0.933
Gal(b1-3)GalNAc
  glycan array binding signal (z-score): -0.572
[11]
  glycan array binding signal (z-score): -1.2
[12]
  glycan array binding signal (z-score): 0.691
Gal(b1-3)GalNAc(b1-3)Gal
  glycan array binding signal (z-score): -0.637
[13]
  glycan array binding signal (z-score): -0.509
[14]
  glycan array binding signal (z-score): -0.42
[15]
  glycan array binding signal (z-score): 1.04
Gal(b1-3)GlcNAc
  glycan array binding signal (z-score): -0.496
[16]
  glycan array binding signal (z-score): -0.73
[17]
  glycan array binding signal (z-score): -0.801
Gal(b1-3)GlcNAc(b1-2)Man
  glycan array binding signal (z-score): -1.03
[18]
  glycan array binding signal (z-score): -0.655
[19]
  glycan array binding signal (z-score): -0.068
[20]
  glycan array binding signal (z-score): 0.997
[21]
  glycan array binding signal (z-score): 1.64
[22]
  glycan array binding signal (z-score): -0.783
[23]
  glycan array binding signal (z-score): -0.039
[24]
  glycan array binding signal (z-score): 0.41
[25]
  glycan array binding signal (z-score): 0.423
[26]
  glycan array binding signal (z-score): 0.679
[27]
  glycan array binding signal (z-score): 1.37
[28]
  glycan array binding signal (z-score): 0.253
[29]
  glycan array binding signal (z-score): 0.64
[30]
  glycan array binding signal (z-score): 0.109
[31]
  glycan array binding signal (z-score): -1.04
[32]
  glycan array binding signal (z-score): -1.94
[33]
  glycan array binding signal (z-score): -0.103
Gal(b1-3)GlcNAc6S
  glycan array binding signal (z-score): 0.978
[34]
  glycan array binding signal (z-score): -0.474
[35]
  glycan array binding signal (z-score): 0.451
[36]
  glycan array binding signal (z-score): 1.36
[37]
  glycan array binding signal (z-score): -0.05
[38]
  glycan array binding signal (z-score): -0.072
[39]
  glycan array binding signal (z-score): 0.219
[40]
  glycan array binding signal (z-score): 0.698
[41]
  glycan array binding signal (z-score): 0.137
[42]
  glycan array binding signal (z-score): -1.09
[43]
  glycan array binding signal (z-score): 0.185
[44]
  glycan array binding signal (z-score): 0.019
Gal(b1-4)Gal
  glycan array binding signal (z-score): -0.519
[45]
  glycan array binding signal (z-score): 2.27
[46]
  glycan array binding signal (z-score): -0.768
